Data: patent publication US20180251563A1
No constants are given. Whether binding was seen depends on the method and setting. Some results given as binding are weak or reduced against the parent protein; the word gives no strength. Blank lines part the entries; values can stand above or below the binder they belong to.

By UniProt entry, the sequences of proteins in these tests, tags left out. Where a name states a change or a piece, a line headed by the entry shows the natural chain unless it says otherwise. Chains listed by the source or under a name are the forms on record and can include a tag or linker.
cynomolgus PD-L1 (cynomolgus (Macaca fascicularis)) (G7PSE7, form named): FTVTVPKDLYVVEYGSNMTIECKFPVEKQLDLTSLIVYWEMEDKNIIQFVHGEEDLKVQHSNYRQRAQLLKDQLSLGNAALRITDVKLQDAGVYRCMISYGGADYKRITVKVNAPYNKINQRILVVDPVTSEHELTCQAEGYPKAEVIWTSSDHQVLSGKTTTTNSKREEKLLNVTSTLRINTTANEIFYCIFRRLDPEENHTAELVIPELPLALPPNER

Columns and labels:
[1] = biological target: cynomolgus PD-L1 (cynomolgus (Macaca fascicularis)) (UniProt G7PSE7); experiment: flow cytometry, CAR T cells
[2] = biological target: cynomolgus PD-L1 (cynomolgus (Macaca fascicularis)) (UniProt G7PSE7); experiment: flow cytometry, human T cells with the pb04 CAR incubated with soluble cynomolgus PDL1-Fc, detection with anti-Fc
[3] = biological target: T1, CD123 (target of Example 19) (Homo sapiens (Human)) (UniProt P26951); experiment: library selection; assay not described
T1 sequence: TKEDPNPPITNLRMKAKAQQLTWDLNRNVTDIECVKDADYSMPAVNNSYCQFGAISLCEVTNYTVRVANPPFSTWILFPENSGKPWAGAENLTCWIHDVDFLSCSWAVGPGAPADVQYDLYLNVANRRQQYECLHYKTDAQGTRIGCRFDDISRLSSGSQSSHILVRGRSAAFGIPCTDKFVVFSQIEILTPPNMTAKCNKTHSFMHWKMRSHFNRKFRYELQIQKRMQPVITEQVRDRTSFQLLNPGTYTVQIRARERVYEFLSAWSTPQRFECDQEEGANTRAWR

B1: CAR comprising the DBDpp pb04 (protein, not shown: small tags and cut ends)
chain: MGSWYEFTVRLEAIHERLKALGGSEAELAAFEKEIAAFESELQAYKGKGNPEVEILRDDAAFIRRFLQAYRHN
binding [1]: binds
binding [2]: binds

B3: SEQ ID NO 102 (designed binder)
chain: MGSWTEFDRRLDAIWDRLFALGGSEAELAAFEKEIAAFESELQAYKGKGNPEVEWLREEAADIRDYLQAYRHN
binding [3]: binds

Second part, the binder after the results:

binding [3]: binds
B2: SEQ ID NO 101 (designed binder)
chain: MGSWTEFDRRLDAIWDRLFALGGSEAELAAFEKEIAAFESELQAYKGKGNPEVEWLREEAADIRDYLQAYRHN

binding [3]: binds
B4: SEQ ID NO 114 (designed binder)
chain: MGSWTEFDRRLDAIWDRLFALGGSEAELAAFEKEIAAFESELQAYKGKGNPEVEWLREEAADIRDYLQAYRHN
